Data: patent US5131911A, “Use of indole derivative for dyeing keratin materials, tinctorial compositions, new compounds and dyeing process” (L'Oreal, priority 1988, dated 1992)

Columns and labels:
[1] = dyeing of hair with copper sulphate composition, rinse, then indole composition; parameters: species or system human
[2] = dyeing of hair with composition (A), then acid sodium nitrite composition (B); parameters: species or system human; conditions: for color obtained on hair: then sodium nitrite as in Example 16

COc1c(O)ccc2cc[nH]c12 [6-hydroxy-7-methoxyindole]
color obtained on hair ([1]; Example 3, copper sulphate 1.0 g pH 9.5, 5 min, then 0.83 g per 100 g, pH 8.7, 5 min): matt ash-blond color | color of the highlight obtained on hair ([2]; Example 16, 2.5 g per 100 g, pH about 5.8, 15 min, then sodium nitrite 2.5 g pH 3, 9 min): dark coppery mahogany

CCOc1ccc2[nH]ccc2c1O [4-hydroxy-5-ethoxyindole, 5-ethoxy-4-hydroxyindole]
color obtained on hair ([2]; Example 17, 2.5 g per 100 g, pH 6): light golden chestnut color

COc1ccc(O)c2[nH]c(C)c(C)c12 [2,3-dimethyl-7-hydroxy-4-methoxyindole]
color obtained on hair ([1]; Example 11, copper sulphate 1.0 g pH 9.5, 5 min, then 1.0 g per 100 g, pH 8.7, 5 min): pearly mahogany blond | color obtained on hair ([2]; Example 20, 2.0 g per 100 g, pH 5.8): orangish yellow color

COc1ccc2[nH]ccc2c1O [4-hydroxy-5-methoxyindole]
color obtained on hair ([1]; Example 5, copper sulphate 0.25 g pH 9.5, 5 min, then 0.62 g per 100 g, pH 8, 5 min): intense mauve color | color obtained on hair ([2]; Example 18, 2.5 g per 100 g, pH 6): light golden chestnut color

COc1ccc(O)c2c(C)c(C)[nH]c12 [2,3-dimethyl-4-hydroxy-7-methoxyindole]
color obtained on hair ([1]; Example 14, copper sulphate 1.0 g pH 9.5, 5 min, then 1.0 g per 100 g, pH 8.5, 5 min): olive-green hue | use of the hue obtained on hair ([1]; Example 14, copper sulphate then 1.0 g per 100 g, pH 8.5): can be used to counter ginger tones | color obtained on hair ([2]; Example 19, 2.5 g per 100 g, pH 6): orangish color

COc1ccc2[nH]c(C)cc2c1O [4-hydroxy-5-methoxy-2-methylindole]
color obtained on hair ([1]; Example 9, copper sulphate 1.0 g pH 9.5, 5 min, then 0.5 g per 100 g, pH 10.2, 5 min): intense blue ash-blond color
